According to PubChem BioAssay AID248 (DTP/NCI, 2004):
The list shows only some results of the screen, not a fair sample: it gathers some chemical classes. Not every dose and run of a compound is shown. T/C gives the treated animals as a percentage of the vehicle group. For survival time, the PubChem record calls one and a half times the control and up active, and a quarter to a half above the control has no call in these data; cut-offs in other NCI protocols can differ. Some entries show no survivor count and are marked so; the dose need not have been tolerated. Schedules are NCI's codes, taken here to give the interval after Q, in days (D) or hours (H), and the number of doses after X. Some entries were tested several times; the results are listed from low to high. Signs of the kind (2×) give the number of equal values in this list.

Test system: L1210 leukemia ip in BDF1 mice, survival T/C
Assay: NCI In Vivo Anticancer Drug Screen. Data for tumor model L1210 Leukemia (intraperitoneal) in B6D2F1 (BDF1) mice
Conditions: T/C endpoint: mean survival time, higher T/C = longer survival

COC1OC(CN(CCCl)CCCl)C2OC(C)(C)OC12 (configuration not stated)
T/C (dose: 1.1 mg/kg/injection, schedule: Q04DX003 (ip), vehicle: saline): 119 % of control [survivor count not shown]
T/C (dose: 1.7 mg/kg/injection, schedule: Q04DX003 (ip), vehicle: saline): 133 % of control [survivor count not shown]
T/C (dose: 2.7 mg/kg/injection, schedule: Q04DX003 (ip), vehicle: saline): 138 % of control [survivor count not shown]
T/C (dose: 4.1 mg/kg/injection, schedule: Q04DX003 (ip), vehicle: saline): 130 % of control [survivor count not shown]
T/C (dose: 6.25 mg/kg/injection, schedule: Q04DX003 (ip), vehicle: saline): 139 % of control [survivor count not shown]

Cc1nc2ccccc2c(=O)n1N(CCCl)CCCl
T/C (dose: 100.0 mg/kg/injection, schedule: Q01DX001 (ip), vehicle: saline): 100 % of control [survivor count not shown]

O=C(NCCCl)c1ccc(N(CCCl)CCCl)cc1
T/C (dose: 50.0 mg/kg/injection, schedule: Q04DX003 (ip), vehicle: Klucel (hydroxypropylcellulose) (HPC)): 92 % of control [survivor count not shown]
T/C (dose: 100.0 mg/kg/injection, schedule: Q01DX009 (ip), vehicle: Klucel (hydroxypropylcellulose) (HPC)): 96 % of control [survivor count not shown]
T/C (dose: 100.0 mg/kg/injection, schedule: Q04DX003 (ip), vehicle: Klucel (hydroxypropylcellulose) (HPC)): 97 % of control [survivor count not shown]
T/C (dose: 200.0 mg/kg/injection, schedule: Q01DX009 (ip), vehicle: Klucel (hydroxypropylcellulose) (HPC)): 91 % of control [survivor count not shown]
T/C (dose: 200.0 mg/kg/injection, schedule: Q04DX003 (ip), vehicle: Klucel (hydroxypropylcellulose) (HPC)): 96 % of control [survivor count not shown]
T/C (dose: 400.0 mg/kg/injection, schedule: Q01DX009 (ip), vehicle: Klucel (hydroxypropylcellulose) (HPC)): 92 % of control [survivor count not shown]
T/C (dose: 400.0 mg/kg/injection, schedule: Q04DX003 (ip), vehicle: Klucel (hydroxypropylcellulose) (HPC)): 105 % of control [survivor count not shown]

CCCc1[nH]c(=S)[nH]c(=O)c1CN(CCCl)CCCl
T/C (dose: 3.1 mg/kg/injection, schedule: Q04DX002 (ip), vehicle: Klucel (hydroxypropylcellulose) (HPC)): 117 % of control [survivor count not shown]
T/C (dose: 6.25 mg/kg/injection, schedule: Q04DX002 (ip), vehicle: Klucel (hydroxypropylcellulose) (HPC)): 113 % of control [survivor count not shown]
T/C (dose: 12.5 mg/kg/injection, schedule: Q04DX002 (ip), vehicle: Klucel (hydroxypropylcellulose) (HPC)): 129 % of control [survivor count not shown]
T/C (dose: 25.0 mg/kg/injection, schedule: Q04DX002 (ip), vehicle: Klucel (hydroxypropylcellulose) (HPC)): 123 % of control [survivor count not shown]

BrCCN(CCBr)CCCN(CCBr)CCBr
T/C (dose: 0.02 mg/kg/injection, schedule: Q01DX009 (ip), vehicle: saline): 100 [survivor count not shown] (2×) and 107 % of control [survivor count not shown]
T/C (dose: 0.03 mg/kg/injection, schedule: Q01DX009 (ip), vehicle: saline): 97 [survivor count not shown], 102 [survivor count not shown], 113 % of control [survivor count not shown]
T/C (dose: 0.06 mg/kg/injection, schedule: Q01DX009 (ip), vehicle: saline): 115 [survivor count not shown], 120 [survivor count not shown], 131 % of control [survivor count not shown]
T/C (dose: 0.25 mg/kg/injection, schedule: Q01DX015 (ip), vehicle: other): 112 % of control [survivor count not shown]
T/C (dose: 0.5 mg/kg/injection, schedule: Q01DX015 (ip), vehicle: other): 119 % of control [survivor count not shown]
T/C (dose: 0.5 mg/kg/injection, schedule: Q04DX003 (ip), vehicle: saline): 120 % of control [survivor count not shown]
T/C (dose: 1.0 mg/kg/injection, schedule: Q01DX015 (ip), vehicle: other): 130 % of control [survivor count not shown]
T/C (dose: 2.0 mg/kg/injection, schedule: Q01DX015 (ip), vehicle: other): 151 % of control [survivor count not shown]
T/C (dose: 2.6 mg/kg/injection, schedule: Q01DX015 (ip), vehicle: saline): 118 % of control [survivor count not shown]
T/C (dose: 4.0 mg/kg/injection, schedule: Q01DX015 (ip), vehicle: saline): 138 % of control [survivor count not shown]
T/C (dose: 5.2 mg/kg/injection, schedule: Q01DX001 (ip), vehicle: other): 123 % of control [survivor count not shown]
T/C (dose: 5.5 mg/kg/injection, schedule: Q01DX001 (ip), vehicle: saline): 126 % of control [survivor count not shown]
T/C (dose: 6.0 mg/kg/injection, schedule: Q01DX015 (ip), vehicle: saline): 144 % of control [survivor count not shown]
T/C (dose: 8.0 mg/kg/injection, schedule: Q01DX001 (ip), vehicle: other): 143 % of control [survivor count not shown]
T/C (dose: 8.3 mg/kg/injection, schedule: Q01DX001 (ip), vehicle: saline): 134 % of control [survivor count not shown]
T/C (dose: 9.0 mg/kg/injection, schedule: Q01DX015 (ip), vehicle: saline): 100 % of control [survivor count not shown]
T/C (dose: 12.0 mg/kg/injection, schedule: Q01DX001 (ip), vehicle: other): 125 % of control [survivor count not shown]
T/C (dose: 12.5 mg/kg/injection, schedule: Q01DX001 (ip), vehicle: saline): 126 [survivor count not shown] and 146 % of control [survivor count not shown]
T/C (dose: 18.0 mg/kg/injection, schedule: Q01DX001 (ip), vehicle: other): 141 % of control [survivor count not shown]
T/C (dose: 25.0 mg/kg/injection, schedule: Q01DX001 (ip), vehicle: saline): 93 % of control [survivor count not shown]
T/C (dose: 15.6 micrograms/kg/injection, schedule: Q04DX003 (ip), vehicle: saline): 118 % of control [survivor count not shown]
T/C (dose: 31.2 micrograms/kg/injection, schedule: Q04DX003 (ip), vehicle: saline): 107 % of control [survivor count not shown]
T/C (dose: 62.5 micrograms/kg/injection, schedule: Q04DX003 (ip), vehicle: saline): 103 % of control [survivor count not shown]
T/C (dose: 125.0 micrograms/kg/injection, schedule: Q04DX003 (ip), vehicle: saline): 108 % of control [survivor count not shown]
T/C (dose: 250.0 micrograms/kg/injection, schedule: Q04DX003 (ip), vehicle: saline): 102 % of control [survivor count not shown]
T/C (dose: 500.0 micrograms/kg/injection, schedule: Q04DX003 (ip), vehicle: saline): 121 % of control [survivor count not shown]

O=C(O)CCCCc1ccc(N(CCCl)CCCl)cc1
T/C (dose: 25.0 mg/kg/injection, schedule: Q01DX015 (ip), vehicle: carboxymethylcellulose (CMC)): 121 % of control [survivor count not shown]
T/C (dose: 25.0 mg/kg/injection, schedule: Q04DX003 (ip), vehicle: saline with Tween-80): 102 % of control [survivor count not shown]
T/C (dose: 50.0 mg/kg/injection, schedule: Q01DX015 (ip), vehicle: carboxymethylcellulose (CMC)): 122 % of control [survivor count not shown]
T/C (dose: 50.0 mg/kg/injection, schedule: Q04DX003 (ip), vehicle: saline with Tween-80): 109 % of control [survivor count not shown]
